Data on 105 sequences can be found in PubChem BioAssay AID1347423 (Functional Genomics Laboratory (NCATS/FGL), 2020).

The whole screen tested about 52,000 sequences, of which about 210 (0.4%) were called active.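 How the source made its calls: active means gene whose silencing raises cell survival under the drug, median off-target-corrected z-score across its silencing RNAs 2 or more; inactive means the rest.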 The list shows a part of the results.

This test is described as follows: Resistance to Poly (ADP-Ribose) Polymerase inhibitor: Gene Identification via Genome-wide siRNA Screen. To be noted: mouse BRCA2 R2336H ES cells, olaparib, CellTiter-Glo viability; stronger effect = higher value. The procedure, abridged: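 Genome-wide siRNA screen (3 siRNAs/gene, 20 nM) in mouse ES cells carrying hypomorphic BRCA2 R2336H; olaparib 500 nM added 48 h post-transfection, CellTiter-Glo viability 72 h later. Normalized to plate-median negative control; MAD z-scores, gene median, seed-adjusted.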
In the case of GAUACUGUCUACAAGCUUCTT against BC088983, the z-score is inactive: -0.513.
The figure for GGCUGUACAGUCAUGCAAGTT against Adamts5 is active: 2.62; for GAUGACUCGGGUCCGAGUATT against Mrpl14 it is inactive: -0.516; for GCUUCAAGAACGAACUGUUTT against Bmp10 it is inactive: 0.0167.
CGAGGCAAGCGAUGUCGAUTT against AI790326: the z-score was inactive: 0.461.
The figure for GGCUACGACAGAAAAGACUTT against Ict1 is inactive: 0.689; for GCCCAUGUGGACUUCUAUGTT against Spr it is inactive: -1.05.
For the sequence “GGGUCAUGAAAAAACAUUATT against 1810044O22Rik”, the z-score is inactive: -0.443.
With GGUCAGUCUACUUUUCCACTT against Tas2r108, the z-score is inactive: -0.732.
Consider “GGAACUCCUAGCACUGAAATT against 4932408F19Rik”, for which the z-score is inactive: -0.0292.
The figure for GGUAGGAUGAGUUGAAGAGTT against AF366264 is inactive: -0.526; for GGUUUGUAUCUUAAAUGCCTT against Tdpoz4 it is inactive: 0.83; for GGAAGAGAGGACCAUGAAGTT against Usp18 it is active: 2.69.
Take GGUCUAGUAGGAUUUCUAUTT against Nid1: the z-score was inactive: 0.161.
The figure for GGGUGAAAAUGGCAUUGUUTT against Col1a2 is inactive: -0.199; for GGAUGCAUAUGAAUUUGCUTT against Brdt it is inactive: -0.824; for GGUCCUGUCUAAAGCUCAATT against Efna5 it is inactive: -1.9.
The figure for GCAGAUUGCUCAGAUUACCTT against Brip1 is inactive: 1.8.
The figure for CCUGUUGGCCAUUUCCUAGTT against Zdhhc21 is inactive: 0.386.
Consider CCAGCCAGACUGAAAAAGCTT against Gm1574, for which the z-score was inactive: -0.156.
In the case of GGACUGAAGGAUGCCUCAATT against BC016201, the z-score was inactive: -0.788.
The figure for CCUUCCUUUACCGAUACUCTT against BC026996 is inactive: -0.449; for AUUCAACCUGUCAAUUGUCTT against Hist1h2ae it is inactive: 0.653.
The figure for GGAAACACCAUGAAGAUGATT against Atpi is inactive: 0.185; for CCUAGAAAGUCUUGGUGGATT against BC048651 it is inactive: 0.164.
With “GGUUGAUAGGAUAUGGUCCTT against 9830147P19Rik”, the z-score was inactive: 1.45.
The figure for GGUUCAAUAAGCACUUGGATT against Drpla is inactive: -1.05.
Regarding GGUCUGAGCCUUGUCUUUATT against Ipf1, the z-score was inactive: -0.695.
The figure for GGAAAAAAGUCAAGAAAGUTT against Fstl5 is inactive: -1.3; for “GGAUCUGUGAGUUUGUAGCTT against D930030D11Rik” it is inactive: -0.481; for “GGUCAAAUAGGGAACCUAGTT against B130050K08” it is inactive: -0.566.
The figure for GGUGAUUGGUGUAAAAUCUTT against Gdi3 is inactive: 1.61.
Regarding GGUUUAGGGUCAAGAUAUUTT against Ttf2, the z-score was inactive: -0.208.
The figure for GGAAGAAGAAAAGAUUCUGTT against Ddx41 is inactive: -0.521.
Regarding GGAACUUUCUAAAGUGUUUTT against D13Wsu50e, the z-score is inactive: 0.893.
The figure for “GGAUAAGUCACAGGUCACUTT against 2300003C06Rik” is inactive: 1.11; for GGGACUGGAUUGUUGUUGUTT against Slc40a1 it is inactive: 0.255; for “GAAACUUUGAGUCCUCCAGTT against 2610510B01Rik” it is inactive: 0.452.
The figure for GGGUCUUUCACUACGACAGTT against Vnn1 is inactive: 0.93; for GGAUGAACACUGUUACAAATT against Tusc3 it is inactive: 0.384; for CCAGCUACGACGUAACUGATT against Rpl3l it is inactive: -1.28.
The figure for GGUCCGAUUUGAUCAGCGUTT against Smpd2 is inactive: 0.744.
Regarding GGACUUCAGCUCCAGGCUATT against Cdk5rap1, the z-score is inactive: -1.17.
GCAAUACCACCAAGAAAUATT against Zcchc8: the z-score was inactive: 1.16.
Turning to GGUAGAAACUGACCACAUATT against Pdcd8, the z-score is inactive: -0.48.
The figure for GGAUAUUUAUUGUAUCCCATT against Col8a1 is inactive: -0.318; for GGAGCAGAAACUUGUCAAATT against Pik3c2g it is inactive: 1.09.
“GGUCAAAGACUCUUCUGAUTT against 2810430M08Rik”: the z-score was inactive: -0.729.
The figure for GGACUUCUUAACCGCCCUGTT against Sirt5 is inactive: -1.03; for “CGGCCUUAUCCAGUUAUGATT against 1700019B16Rik” it is inactive: -0.321.
As for GGCCCUAUUAGAGAUAAAATT against Robo3, the z-score is inactive: -0.166.
With GGAGGAGUUCCAGAUCCACTT against Pald, the z-score was inactive: -0.913.
The figure for GGUUCAGACAACUCAGUGGTT against Pbx1 is inactive: -2.38; for GGGAUGGGACCAUCAAUCUTT against Cib1 it is inactive: 1.25.
The figure for GCAAAUUAACAGAGUGUCCTT against Dnase1l2 is inactive: -0.318; for GGCUCUUUCGAUUUCGGCATT against Unc50 it is inactive: -0.423.
The figure for GGAAUGAACCAUAUGUAGCTT against Kcnq3 is inactive: 0.743; for GGAAACCAAACUGCUAUCUTT against Olfr1324 it is inactive: -0.0788.
Turning to GGAGCUAGUUCUAAGCCCUTT against Nrm, the z-score is inactive: 0.7.
The figure for “GGUUAGGUCUAACCAUUGATT against A630005I04Rik” is inactive: -1.42.
As for GCCUCCAUUUCUUGGACGATT against Mpg, the z-score was inactive: -1.36.
The figure for GGAAACCAAGAUUUCUCAGTT against Tyro3 is inactive: 1.21; for CGAGAUUUGUAACAAGUCATT against Dr1 it is inactive: 1.81.
The figure for “CCAUGACUACAACACAUACTT against 1500032D16Rik” is inactive: -0.99.
Regarding GGAAGUCUCCUACAAUGCCTT against Paxip1, the z-score was inactive: -0.92.
The figure for GCUGAGCCGUGAGUUCAAUTT against Trp63 is inactive: 0.0322; for GCGACGAAGAUGUCCUGUUTT against Plxna2 it is inactive: -2.75.
The figure for GCAACCAUCGAACUCAAGGTT against Smarca4 is inactive: -1.52; for GGCCUCUUUGGAUCUAAGCTT against Nupl1 it is inactive: -0.209.
The figure for GCAGAUCUAUAACAUUACATT against Zfyve20 is inactive: -2.35; for GGCUCUGUAUUAAAGAGUUTT against AI225782 it is inactive: 0.11.
For the sequence GCUCUAAAUGAACAUCUCATT against Snai3, the z-score was inactive: 0.979.
The figure for GGAGCUAGAGACAUUGUGCTT against Phf15 is inactive: 1.58.
The figure for GGCCAAGGACAUUAUAAAUTT against Scly is inactive: 0.729.
The figure for GGACAUAACAUACAUCUCUTT against Sdf4 is inactive: 1.51; for GGAAUCAAAUGACUAAGAATT against Mcl1 it is inactive: -1.2; for GGGUAACUAUUGGACUAACTT against Gabrq it is inactive: 0.269.
Consider “CGAUAAGAAAAGCUUGUUGTT against 6330412F12Rik”, for which the z-score is inactive: -0.0564.
The figure for GAAGCCUCUCUAUGUGCACTT against V1rc19 is inactive: -0.226.
The figure for GCGAAUGCAUGAAAACUCATT against AU019823 is inactive: -0.494; for GGUUCUACUGGAGUCCUGGTT against Cd6 it is inactive: -0.982; for “GCUGCUGUGGCUUUUGUGGTT against 1190002L16Rik” it is inactive: 0.656.
As to GGUAGUGAAUGAACUCUUUTT against Bcl2l1, the z-score is inactive: -1.9.
The figure for “GGAAAAGAAAAAGUUGGGCTT against 3100004P22Rik” is inactive: 0.415.
The figure for GGUAUAUUGCCAUAUGUAATT against Olfr731 is inactive: -1.01.
The figure for GCAACAAUUCUAACAGCUGTT against Tmhs is inactive: -0.349.
Consider GGAAAUCGUGCGUGGCUACTT against Phpt1, for which the z-score is inactive: 0.0394.
The figure for GCACAAGCGAAGAAGUUUGTT against Ube2i is inactive: -1.33; for “GCGGAUUGUCUUCCUAGACTT against 1500002O20Rik” it is inactive: 1.34.
The figure for “GCUGACCUAUUAUCAGAAGTT against 2610207F23Rik” is inactive: 0.255.
The figure for GCCAAUUUUGAACCACUACTT against Itga8 is inactive: 3.32.
In the case of UUCCAGAAACUACCUGUGCTT against Adcy1, the z-score was inactive: 0.235.
The figure for CCUCGAAUUUCAAUAUGCUTT against Ncam1 is inactive: 0.33.
The figure for GUCUUUCCCUAAAAACAGCTT against V1ra4 is inactive: -0.639.
The figure for GGCUCUGAAUAGUGGGCUGTT against Olfr974 is inactive: -1.16.
On to CGUUCCAAGGGAGAACACATT against Dab1, for which the z-score is inactive: -0.542.
The figure for GGAUCCUUCAGCAUUCUUATT against Egr2 is inactive: -0.406; for GGUAUUAACUUUGACAAUCTT against Ncoa5 it is inactive: -0.573; for GGAGUUUCUGGUGUGAUCCTT against Fkbp9 it is inactive: -1.01.
The figure for GCCAUCUUAAGUUGUAACUTT against Fgfr3 is inactive: 0.68; for AUGCCUAUACAAUUCUGUGTT against Olfr1167 it is inactive: -0.807; for GGCAGUGAAAGCAAAGCUGTT against Cldn7 it is inactive: -0.838.
The figure for GGAGGCUUUCUUCAGAAUGTT against V1rh1 is inactive: 0.988; for “GGAAUUGAACGUAGUAGAGTT against 1110019N10Rik” it is inactive: -0.116.
Regarding GGAACAAAAACCAUUGUGATT against Gng7, the z-score was inactive: 0.229.
